In US7049331B2, “1,2,4-thiadiazole derivatives as melanocortin receptor modulators” (Ortho-McNeil Pharmaceutical, Inc., priority 2001, dated 2006):
Where “and” joins values, the source holds several entries; their conditions need not be identical. Equal entries are not always repeated. The name of at least one read-out is uncertain.

Tested on: Food-Deprived Rats
Experiment: Rodent Feeding: Food Intake in Food-Deprived Rats (MC-4)
Type: in vivo, rat
Settings: 10 mg/kg, ip
From the text: Rodent Feeding: Food Intake in Food-Deprived Rats (MC-4)
Male Long-Evans rats (180–200 grams) were housed individually and maintained on a once-a-day feeding schedule (i.e.10 a.m. until 4 p.m.) for five days following quarantine to allow the animals to acclimate to feeding on powdered chow (#5002 PMI Certified Rodent Meal) during the allotted time. The chow was made available in an open jar, anchored in the cage by a wire, with a metal follower covering the food to minimize spillage. Water was available ad-libitum.
Animals were fasted for 18 hours prior to testing. At the end of the fasting period, animals were administered either a test compound or vehicle. Vehicle and test compound were administered either orally (5 mL/kg) 60 minutes prior to the experiment, subcutaneously (1 mL/kg) 30 minutes prior to the experiment, or intraperitoneally (1 mL/kg) 30 minutes prior to the experiment. Test compounds were administered orally as a suspension in aqueous 0.5% methylcellulose-0.4% Tween 80, or intraperitoneally as a solution or suspension in PEG 200; compound concentrations typically ranged from 1 mg/kg to 100 mg/kg, preferably from 10–30 mg/kg. Food intake was measured at 2, 4, and 6 hours after administration by weighing the special jar containing the food before the experiment and at the specified times. […]

## c1ccc(CNc2nc(-c3ccccc3)[n+](-c3ccccc3)s2)cc1 [Compound 84]
  Change in Food Intake 2–6 hrs (%): −24.5% and −17.8%
